Results on one substance are retold here after patent US20170296524A1.

The chains behind the UniProt entries cited, without tags or fusion partners. Where a name states a change or a piece, a line headed by the entry shows the natural chain unless it says otherwise. A line that says so, or that is headed by a name, gives the form on record, which may keep a tag or linker.
in vitro-translated, 35S-labeled CD147 (P35613, form named): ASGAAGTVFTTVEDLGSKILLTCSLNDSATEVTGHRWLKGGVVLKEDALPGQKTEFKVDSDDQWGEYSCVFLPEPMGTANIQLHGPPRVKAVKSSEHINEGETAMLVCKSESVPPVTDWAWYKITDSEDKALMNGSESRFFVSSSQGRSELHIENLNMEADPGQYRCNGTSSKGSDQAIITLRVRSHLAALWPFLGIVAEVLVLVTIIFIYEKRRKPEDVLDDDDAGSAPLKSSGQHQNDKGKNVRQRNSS
UniProt Q96SW2: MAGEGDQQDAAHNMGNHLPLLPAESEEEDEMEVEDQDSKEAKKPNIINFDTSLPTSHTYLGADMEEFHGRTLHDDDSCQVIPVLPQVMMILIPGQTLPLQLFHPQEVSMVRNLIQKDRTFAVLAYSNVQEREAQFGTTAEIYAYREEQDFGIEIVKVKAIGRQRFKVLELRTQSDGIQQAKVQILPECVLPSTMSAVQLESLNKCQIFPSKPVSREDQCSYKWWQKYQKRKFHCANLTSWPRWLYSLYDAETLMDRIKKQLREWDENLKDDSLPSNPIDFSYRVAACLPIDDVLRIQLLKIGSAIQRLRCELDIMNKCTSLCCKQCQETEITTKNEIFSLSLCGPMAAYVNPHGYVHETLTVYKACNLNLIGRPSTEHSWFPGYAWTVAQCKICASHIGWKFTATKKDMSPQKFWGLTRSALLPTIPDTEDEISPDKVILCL

Results are given in words; binding and its absence hold for the method and conditions named. Binding seen in cells or lysates may run through a third protein. Some entries that bind do so weakly or less than the wild type.

This experiment has as its target in vitro-translated, 35S-labeled CD147 (human) (UniProt P35613). The experiment can be described thus: pull-down of recombinant GST-CRBN with in vitro-translated 35S-labeled protein, autoradiography (FIG. 16B).

With “recombinant GST-CRBN (purified GST-Cereblon) (from UniProt Q96SW2 1-442)”, the binding result was “binds”.
